In the supplement of paper PMC6411743:
± gives the standard deviation of the averaged measurements. This is a selection; strong and weak results do not stand in their true shares.

Protein sequences, listed by entry. Tags and fused reporters are not part of them. Lines headed by an entry give the natural chain unless they say otherwise; changes in a name come on top.
UniProt Q9NXR5: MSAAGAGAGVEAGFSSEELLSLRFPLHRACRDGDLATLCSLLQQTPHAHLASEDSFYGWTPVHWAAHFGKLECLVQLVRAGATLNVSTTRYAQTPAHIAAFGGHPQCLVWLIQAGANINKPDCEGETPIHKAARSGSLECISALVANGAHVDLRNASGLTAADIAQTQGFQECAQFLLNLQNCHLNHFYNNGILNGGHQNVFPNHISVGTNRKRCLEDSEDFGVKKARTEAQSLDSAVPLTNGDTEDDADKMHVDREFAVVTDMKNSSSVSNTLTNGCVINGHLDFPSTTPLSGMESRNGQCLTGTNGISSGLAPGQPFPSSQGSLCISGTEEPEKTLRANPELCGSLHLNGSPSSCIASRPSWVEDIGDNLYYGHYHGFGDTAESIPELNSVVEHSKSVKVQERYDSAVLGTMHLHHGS
UniProt Q9Y6Y0: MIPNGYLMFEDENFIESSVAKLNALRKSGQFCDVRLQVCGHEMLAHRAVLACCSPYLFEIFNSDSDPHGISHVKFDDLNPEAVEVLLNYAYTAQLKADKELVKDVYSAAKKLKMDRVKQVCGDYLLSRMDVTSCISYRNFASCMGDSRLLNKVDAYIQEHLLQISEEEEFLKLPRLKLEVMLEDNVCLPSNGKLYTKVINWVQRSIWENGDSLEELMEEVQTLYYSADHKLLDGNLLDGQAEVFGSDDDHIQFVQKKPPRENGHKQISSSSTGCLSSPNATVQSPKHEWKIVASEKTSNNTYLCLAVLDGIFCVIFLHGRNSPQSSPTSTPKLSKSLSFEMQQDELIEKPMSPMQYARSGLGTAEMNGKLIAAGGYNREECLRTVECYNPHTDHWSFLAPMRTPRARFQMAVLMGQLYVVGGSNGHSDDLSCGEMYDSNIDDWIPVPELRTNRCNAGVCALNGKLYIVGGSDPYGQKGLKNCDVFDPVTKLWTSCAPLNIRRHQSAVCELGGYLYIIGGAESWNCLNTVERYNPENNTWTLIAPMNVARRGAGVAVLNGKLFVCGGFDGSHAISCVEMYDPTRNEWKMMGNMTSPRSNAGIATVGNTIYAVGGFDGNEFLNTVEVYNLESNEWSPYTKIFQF
UniProt Q9Y680: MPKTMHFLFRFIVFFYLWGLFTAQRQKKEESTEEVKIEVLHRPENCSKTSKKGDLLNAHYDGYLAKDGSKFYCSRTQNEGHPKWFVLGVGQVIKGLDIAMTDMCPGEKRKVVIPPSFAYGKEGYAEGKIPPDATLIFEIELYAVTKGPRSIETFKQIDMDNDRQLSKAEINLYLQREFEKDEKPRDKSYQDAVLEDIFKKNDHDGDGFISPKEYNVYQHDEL
UniProt Q9Y6D9: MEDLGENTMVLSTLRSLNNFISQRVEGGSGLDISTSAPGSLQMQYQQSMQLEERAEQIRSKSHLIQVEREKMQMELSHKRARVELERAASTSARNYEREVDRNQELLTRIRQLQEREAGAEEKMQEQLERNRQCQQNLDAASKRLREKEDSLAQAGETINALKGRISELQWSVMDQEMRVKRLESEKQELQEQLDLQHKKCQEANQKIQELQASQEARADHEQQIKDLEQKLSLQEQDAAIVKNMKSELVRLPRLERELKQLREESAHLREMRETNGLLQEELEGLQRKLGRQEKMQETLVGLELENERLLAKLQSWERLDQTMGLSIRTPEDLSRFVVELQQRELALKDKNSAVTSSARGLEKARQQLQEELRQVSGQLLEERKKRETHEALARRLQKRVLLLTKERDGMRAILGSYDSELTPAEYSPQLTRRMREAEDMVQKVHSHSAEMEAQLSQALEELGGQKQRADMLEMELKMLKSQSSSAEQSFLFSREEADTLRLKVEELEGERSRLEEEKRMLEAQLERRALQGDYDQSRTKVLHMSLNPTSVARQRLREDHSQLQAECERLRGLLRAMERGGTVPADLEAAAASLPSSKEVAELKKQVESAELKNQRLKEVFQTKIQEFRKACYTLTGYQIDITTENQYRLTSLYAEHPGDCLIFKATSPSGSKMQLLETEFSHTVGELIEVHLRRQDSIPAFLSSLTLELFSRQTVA
UniProt Q9Y5N6: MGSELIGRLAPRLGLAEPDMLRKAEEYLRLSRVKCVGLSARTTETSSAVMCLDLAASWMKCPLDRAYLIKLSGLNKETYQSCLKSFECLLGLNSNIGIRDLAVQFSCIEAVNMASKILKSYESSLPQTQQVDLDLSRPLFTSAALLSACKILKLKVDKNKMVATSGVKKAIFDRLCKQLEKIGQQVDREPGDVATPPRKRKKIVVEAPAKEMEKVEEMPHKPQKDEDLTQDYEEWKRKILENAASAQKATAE
UniProt Q9Y547: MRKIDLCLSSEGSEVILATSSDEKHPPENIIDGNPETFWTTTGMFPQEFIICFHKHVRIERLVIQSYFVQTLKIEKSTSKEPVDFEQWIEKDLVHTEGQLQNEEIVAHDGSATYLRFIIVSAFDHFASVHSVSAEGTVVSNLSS
UniProt Q9Y4Y9: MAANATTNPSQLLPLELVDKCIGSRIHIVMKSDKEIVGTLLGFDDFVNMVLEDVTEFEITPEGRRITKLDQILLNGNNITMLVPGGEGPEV
UniProt Q9Y3Y2: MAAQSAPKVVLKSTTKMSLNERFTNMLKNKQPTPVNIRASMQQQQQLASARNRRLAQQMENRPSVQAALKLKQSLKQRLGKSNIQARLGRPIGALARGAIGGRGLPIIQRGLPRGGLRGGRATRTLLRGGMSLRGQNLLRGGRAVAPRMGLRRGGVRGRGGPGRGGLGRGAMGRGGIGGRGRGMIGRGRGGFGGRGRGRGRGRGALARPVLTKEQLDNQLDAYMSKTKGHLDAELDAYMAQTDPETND
UniProt Q9Y4B4: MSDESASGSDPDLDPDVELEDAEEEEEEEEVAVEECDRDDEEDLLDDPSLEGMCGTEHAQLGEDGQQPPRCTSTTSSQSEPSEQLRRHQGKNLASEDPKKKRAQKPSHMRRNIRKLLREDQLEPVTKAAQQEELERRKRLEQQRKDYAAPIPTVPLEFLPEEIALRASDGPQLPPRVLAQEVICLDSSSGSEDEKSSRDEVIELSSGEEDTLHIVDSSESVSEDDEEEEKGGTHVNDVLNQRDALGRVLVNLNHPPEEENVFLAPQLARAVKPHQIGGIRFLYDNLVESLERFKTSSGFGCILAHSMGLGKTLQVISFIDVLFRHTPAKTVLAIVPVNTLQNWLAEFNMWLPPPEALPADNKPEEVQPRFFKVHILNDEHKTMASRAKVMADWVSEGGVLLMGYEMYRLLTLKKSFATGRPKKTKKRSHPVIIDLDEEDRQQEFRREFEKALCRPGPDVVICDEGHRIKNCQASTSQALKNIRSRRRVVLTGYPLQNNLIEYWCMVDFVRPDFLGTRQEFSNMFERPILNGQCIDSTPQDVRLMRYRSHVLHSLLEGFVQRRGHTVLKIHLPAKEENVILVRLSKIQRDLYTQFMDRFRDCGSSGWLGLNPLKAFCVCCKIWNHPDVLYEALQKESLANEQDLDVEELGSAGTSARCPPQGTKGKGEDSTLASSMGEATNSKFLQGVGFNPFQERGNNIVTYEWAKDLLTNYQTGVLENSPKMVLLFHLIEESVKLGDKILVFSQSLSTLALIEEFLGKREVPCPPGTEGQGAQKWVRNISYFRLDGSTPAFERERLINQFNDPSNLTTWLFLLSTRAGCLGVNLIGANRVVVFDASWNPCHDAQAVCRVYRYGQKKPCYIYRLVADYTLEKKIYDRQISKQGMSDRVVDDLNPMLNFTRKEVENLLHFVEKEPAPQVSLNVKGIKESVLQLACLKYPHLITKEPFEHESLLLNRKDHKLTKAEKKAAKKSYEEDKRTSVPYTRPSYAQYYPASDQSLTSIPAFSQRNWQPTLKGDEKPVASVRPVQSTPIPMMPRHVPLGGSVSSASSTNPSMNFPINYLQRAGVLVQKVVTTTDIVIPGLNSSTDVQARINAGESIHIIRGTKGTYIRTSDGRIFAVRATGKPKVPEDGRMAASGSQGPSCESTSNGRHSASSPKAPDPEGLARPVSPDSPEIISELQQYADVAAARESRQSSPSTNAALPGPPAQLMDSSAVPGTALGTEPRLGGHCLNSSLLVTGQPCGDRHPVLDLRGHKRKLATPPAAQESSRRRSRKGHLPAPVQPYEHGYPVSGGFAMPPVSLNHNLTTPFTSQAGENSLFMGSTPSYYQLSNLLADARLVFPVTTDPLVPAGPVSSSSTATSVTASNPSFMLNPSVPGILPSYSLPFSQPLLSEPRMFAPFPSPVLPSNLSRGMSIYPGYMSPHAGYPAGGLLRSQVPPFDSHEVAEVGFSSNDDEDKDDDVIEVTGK
UniProt Q5VZ89: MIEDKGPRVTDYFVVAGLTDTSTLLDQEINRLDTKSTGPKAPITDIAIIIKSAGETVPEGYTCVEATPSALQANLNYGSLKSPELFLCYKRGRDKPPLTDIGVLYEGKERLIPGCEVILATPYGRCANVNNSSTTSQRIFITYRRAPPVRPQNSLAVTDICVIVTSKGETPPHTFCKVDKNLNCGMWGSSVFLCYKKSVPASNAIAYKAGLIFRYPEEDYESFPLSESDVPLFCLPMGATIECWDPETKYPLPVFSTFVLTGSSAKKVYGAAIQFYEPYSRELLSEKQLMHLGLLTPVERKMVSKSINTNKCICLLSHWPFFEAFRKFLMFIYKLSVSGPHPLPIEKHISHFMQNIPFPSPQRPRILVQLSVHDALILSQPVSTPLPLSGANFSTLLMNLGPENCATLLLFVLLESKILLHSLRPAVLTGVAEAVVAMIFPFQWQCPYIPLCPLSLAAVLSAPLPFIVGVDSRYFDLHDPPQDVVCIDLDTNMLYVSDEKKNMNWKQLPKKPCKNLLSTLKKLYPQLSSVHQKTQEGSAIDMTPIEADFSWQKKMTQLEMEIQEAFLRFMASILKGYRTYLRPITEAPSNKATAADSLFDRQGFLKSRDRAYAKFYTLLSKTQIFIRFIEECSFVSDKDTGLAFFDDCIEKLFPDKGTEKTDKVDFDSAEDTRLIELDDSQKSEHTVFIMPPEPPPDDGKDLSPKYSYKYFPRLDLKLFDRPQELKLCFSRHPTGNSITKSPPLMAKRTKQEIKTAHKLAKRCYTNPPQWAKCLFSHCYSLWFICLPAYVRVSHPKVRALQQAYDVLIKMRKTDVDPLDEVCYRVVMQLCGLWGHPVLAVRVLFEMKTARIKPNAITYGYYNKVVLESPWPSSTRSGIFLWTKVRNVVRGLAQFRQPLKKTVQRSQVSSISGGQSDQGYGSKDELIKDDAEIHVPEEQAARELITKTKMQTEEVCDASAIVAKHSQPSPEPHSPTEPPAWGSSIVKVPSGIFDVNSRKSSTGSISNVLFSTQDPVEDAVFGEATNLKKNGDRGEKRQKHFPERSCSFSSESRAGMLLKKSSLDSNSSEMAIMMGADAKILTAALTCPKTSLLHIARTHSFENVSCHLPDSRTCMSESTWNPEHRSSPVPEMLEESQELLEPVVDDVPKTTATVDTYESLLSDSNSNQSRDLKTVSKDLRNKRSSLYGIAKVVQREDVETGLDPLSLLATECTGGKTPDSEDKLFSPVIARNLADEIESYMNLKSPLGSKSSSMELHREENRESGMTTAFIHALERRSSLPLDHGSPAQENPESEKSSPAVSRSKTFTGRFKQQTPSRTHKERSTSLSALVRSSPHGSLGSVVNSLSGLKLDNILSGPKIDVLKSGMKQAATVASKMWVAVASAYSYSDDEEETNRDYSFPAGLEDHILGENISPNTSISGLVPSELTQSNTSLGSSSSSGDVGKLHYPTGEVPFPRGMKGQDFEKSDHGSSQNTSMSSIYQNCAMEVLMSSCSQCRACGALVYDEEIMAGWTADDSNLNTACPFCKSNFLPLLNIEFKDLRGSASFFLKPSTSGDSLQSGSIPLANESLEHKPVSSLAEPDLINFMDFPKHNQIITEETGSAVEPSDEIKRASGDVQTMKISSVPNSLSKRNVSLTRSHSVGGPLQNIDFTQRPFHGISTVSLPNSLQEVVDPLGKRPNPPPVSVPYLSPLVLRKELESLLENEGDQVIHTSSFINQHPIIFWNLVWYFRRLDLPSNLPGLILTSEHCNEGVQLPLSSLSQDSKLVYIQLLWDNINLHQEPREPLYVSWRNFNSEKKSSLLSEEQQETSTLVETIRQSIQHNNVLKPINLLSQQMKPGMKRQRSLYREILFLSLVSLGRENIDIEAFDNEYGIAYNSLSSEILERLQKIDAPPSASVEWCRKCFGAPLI
UniProt Q9Y570: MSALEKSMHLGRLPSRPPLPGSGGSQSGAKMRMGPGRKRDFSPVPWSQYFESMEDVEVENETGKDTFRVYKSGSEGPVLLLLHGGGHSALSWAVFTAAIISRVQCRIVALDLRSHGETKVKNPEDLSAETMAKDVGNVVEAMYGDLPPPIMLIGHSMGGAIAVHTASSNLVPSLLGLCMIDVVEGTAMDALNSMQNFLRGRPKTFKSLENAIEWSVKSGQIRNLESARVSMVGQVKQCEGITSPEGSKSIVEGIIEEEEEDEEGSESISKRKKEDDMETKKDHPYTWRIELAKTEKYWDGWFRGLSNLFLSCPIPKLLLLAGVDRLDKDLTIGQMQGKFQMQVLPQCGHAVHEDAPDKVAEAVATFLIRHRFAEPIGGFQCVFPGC

Compound: Nc1ncnc2c1ncn2[C@@H]1O[C@H](COP(=O)(O)OP(=O)(O)NP(=O)(O)O)[C@@H](O)[C@H]1O [adenylyl imidodiphosphate]
Assay: NP40-soluble protein abundance relative to vehicle (solubility fold change) (ratio); higher = more soluble protein in presence of AMP-PNP
Outline: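 Values are fold changes against the detergent-processed vehicle, based on vsn-normalised intensities. Jurkat crude lysate was treated at eight concentrations from 0.1 to 10 mM (10 min at room temperature, then 3 min at 37 °C), solubilised with 0.8% NP40 and benzonase, ultracentrifuged and analysed by TMT-labelled LC-MS/MS over three independent experiments.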

Target	NP40-soluble protein abundance (concentration: 1mM)	NP40-soluble protein abundance (concentration: 2mM)	NP40-soluble protein abundance (concentration: 4mM)	NP40-soluble protein abundance (concentration: 6mM)	NP40-soluble protein abundance (concentration: 8mM)	NP40-soluble protein abundance (concentration: 10mM)
S4R3R2 (UniProt Q9NXR5)	1.04 ± 0.031	1.05 ± 0.063	1.02 ± 0.027	1.01 ± 0.041	0.983 ± 0.011	0.983 ± 0.022
UniProt Q9Y6V0-2|Q9Y6V0-5|Q9Y6V0-6	0.88 ± 0.092	0.769 ± 0.11	0.898 ± 0.073	0.948 ± 0.12	0.944 ± 0.14	0.906 ± 0.095
UniProt Q9Y4B6 and related entries	0.989 ± 0.05	0.971 ± 0.074	1 ± 0.073	0.955 ± 0.062	0.964 ± 0.069	0.97 ± 0.09
IVNS1ABP (UniProt Q9Y6Y0)	0.954 ± 0.079	0.933 ± 0.07	0.958 ± 0.086	0.929 ± 0.069	0.912 ± 0.055	0.938 ± 0.087
TELO2 (UniProt Q9Y4R8)	0.963 ± 0.046	0.9389 ± 0.0056	0.97 ± 0.051	0.978 ± 0.091	1.01 ± 0.068	0.98 ± 0.086
DDX49 (UniProt Q9Y6V7)	1.09 ± 0.076	1.13 ± 0.092	1.15 ± 0.12	1.13 ± 0.1	1.15 ± 0.12	1.24 ± 0.21
YTHDF2 (UniProt Q9Y5A9)	1.06 ± 0.021	1.05 ± 0.017	1.02 ± 0.042	1.03 ± 0.044	1 ± 0.043	1.03 ± 0.072
TACC3 (UniProt Q9Y6A5)	1 ± 0.029	1.05 ± 0.063	1 ± 0.037	0.984 ± 0.014	0.947 ± 0.04	0.976 ± 0.049
DYNC1LI1 (UniProt Q9Y6G9)	1.03 ± 0.078	1.06 ± 0.045	0.999 ± 0.061	0.973 ± 0.1	0.968 ± 0.089	0.988 ± 0.11
UniProt Q9Y4E8 and related entries	0.967 ± 0.013	0.963 ± 0.032	1.02 ± 0.041	1 ± 0.048	0.993 ± 0.065	1.01 ± 0.027
UniProt Q9Y3F4 and related entries	1.01 ± 0.013	0.976 ± 0.051	0.956 ± 0.021	0.976 ± 0.03	0.978 ± 0.041	0.948 ± 0.054
UniProt Q9Y680 and related entries	1.023 ± 0.0077	1.05 ± 0.04	0.982 ± 0.034	0.9743 ± 0.0088	0.9594 ± 0.0078	0.992 ± 0.044
MAD1L1 (UniProt Q9Y6D9)	1.02 ± 0.028	1.03 ± 0.039	1.02 ± 0.047	0.986 ± 0.021	0.983 ± 0.046	1 ± 0.057
ORC6 (UniProt Q9Y5N6)	1.024 ± 0.0097	1.06 ± 0.032	1.03 ± 0.04	1.05 ± 0.011	1.04 ± 0.03	1.05 ± 0.064
HSPB11 (UniProt Q9Y547)	1.01 ± 0.032	0.959 ± 0.026	0.995 ± 0.11	1.02 ± 0.12	1.08 ± 0.087	1.03 ± 0.14
LSM5 (UniProt Q9Y4Y9)	1.07 ± 0.06	1.1 ± 0.048	1.09 ± 0.074	0.964 ± 0.016	0.9747 ± 0.0087	0.963 ± 0.086
TSC22D4 (UniProt Q9Y3Q8)	0.996 ± 0.038	1.01 ± 0.05	0.995 ± 0.031	0.986 ± 0.039	1 ± 0.014	0.984 ± 0.043
SEC23IP (UniProt Q9Y6Y8)	1.02 ± 0.021	0.989 ± 0.028	0.9881 ± 0.0077	0.965 ± 0.027	0.961 ± 0.037	0.951 ± 0.027
ENPP4 (UniProt Q9Y6X5)	1.02 ± 0.019	1.08 ± 0.067	1.04 ± 0.035	1.03 ± 0.049	1.04 ± 0.059	1.03 ± 0.055
UniProt Q9Y448 and related entries	0.998 ± 0.035	1.06 ± 0.065	0.981 ± 0.07	0.958 ± 0.014	0.937 ± 0.017	0.964 ± 0.042
SUPT16H (UniProt Q9Y5B9)	1.03 ± 0.016	1.01 ± 0.023	1.1 ± 0.049	1.24 ± 0.053	1.33 ± 0.055	1.46 ± 0.12
CD2AP (UniProt Q9Y5K6)	1.03 ± 0.025	1.06 ± 0.049	1.01 ± 0.021	0.987 ± 0.053	0.961 ± 0.036	0.978 ± 0.023
NOC2L (UniProt Q9Y3T9)	1.06 ± 0.039	1.05 ± 0.062	1.03 ± 0.068	1.1 ± 0.059	1.12 ± 0.096	1.15 ± 0.094
MRPS18B (UniProt Q9Y676)	0.939 ± 0.02	0.971 ± 0.066	0.892 ± 0.054	0.921 ± 0.057	0.922 ± 0.087	0.889 ± 0.1
UniProt Q9Y3Y2 and related entries	1 ± 0.061	1.01 ± 0.046	1.03 ± 0.095	1.04 ± 0.13	1.08 ± 0.14	1.2 ± 0.22
UniProt Q9Y4B4 and related entries	1.01 ± 0.039	1.031 ± 0.0021	1.01 ± 0.033	0.992 ± 0.024	0.953 ± 0.034	0.987 ± 0.045
UniProt Q9Y3L5	1.03 ± 0.052	1.03 ± 0.057	1.04 ± 0.059	1.04 ± 0.033	1.01 ± 0.047	1.01 ± 0.051
R4GN35 and related entries (UniProt Q5VZ89)	0.992 ± 0.016	0.965 ± 0.011	1.018 ± 0.0068	0.971 ± 0.037	0.973 ± 0.041	0.958 ± 0.027
UniProt Q9Y570 and related entries	1.01 ± 0.02	1.04 ± 0.058	1.02 ± 0.031	1.01 ± 0.038	0.967 ± 0.029	1 ± 0.037

Complete entries as entered above:
UniProt Q9Y3F4 and related entries as listed: NP40-soluble protein abundance (concentration: 1mM): 1.01 ± 0.013; NP40-soluble protein abundance (concentration: 2mM): 0.976 ± 0.051; NP40-soluble protein abundance (concentration: 4mM): 0.956 ± 0.021; NP40-soluble protein abundance (concentration: 6mM): 0.976 ± 0.03; NP40-soluble protein abundance (concentration: 8mM): 0.978 ± 0.041; NP40-soluble protein abundance (concentration: 10mM): 0.948 ± 0.054
S4R3R2 (UniProt Q9NXR5) as listed: NP40-soluble protein abundance (concentration: 1mM): 1.04 ± 0.031; NP40-soluble protein abundance (concentration: 2mM): 1.05 ± 0.063; NP40-soluble protein abundance (concentration: 4mM): 1.02 ± 0.027; NP40-soluble protein abundance (concentration: 6mM): 1.01 ± 0.041; NP40-soluble protein abundance (concentration: 8mM): 0.983 ± 0.011; NP40-soluble protein abundance (concentration: 10mM): 0.983 ± 0.022
